Results published in publication PMC8595342.
No constants are given. Whether binding was seen depends on the method and setting. In cells and extracts the contact can be indirect. Some entries that bind do so weakly or less than the wild type. Where a sequence is shown, tags or fusion partners need not be part of it.

Assays:
Test in all cases: co-IP; Flag beads on lysates of transfected HEK293T cells (cell line of Supplemental Fig. 4 not shown); TAP lysis buffer (20 mM Tris-HCl pH 7.4, 0.5% NP40, 150 mM NaCl, 1 mM NaF, 1 mM Na3VO4, 1 mM EDTA), 5 h at 4 °C; immunoblot; full medium, in some panels also Torin or EBSS, siSCFD1, co-expressed HA-SCFD1 or Myc-mTOR
[1] = biological target: T1, Flag-VAMP8^T48A, expressed in HEK293T cells (UniProt Q9BV40)
T1 sequence: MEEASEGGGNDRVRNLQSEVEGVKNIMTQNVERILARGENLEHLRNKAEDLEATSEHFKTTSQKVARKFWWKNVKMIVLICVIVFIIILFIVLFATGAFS

[2] = biological target: T2, Flag-VAMP8^S55A, expressed in HEK293T cells (UniProt Q9BV40)
T2 sequence: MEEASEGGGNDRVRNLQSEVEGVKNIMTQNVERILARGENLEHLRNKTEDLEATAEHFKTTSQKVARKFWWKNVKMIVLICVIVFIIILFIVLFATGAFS

[3] = biological target: T3, Flag-VAMP8 (wild type), expressed in HEK293T cells, Q9BV40; conditions: remark: other sources report otherwise
T3 chain: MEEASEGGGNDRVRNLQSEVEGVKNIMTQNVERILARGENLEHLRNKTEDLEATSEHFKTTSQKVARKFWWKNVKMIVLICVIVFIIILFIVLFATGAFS

Molecule | binding [1] | binding [2] | binding [3]
endogenous STX17 (Syntaxin 17) (from UniProt P56962 1-302) | binds | binds | –
endogenous STX17 (Syntaxin 17), P56962 1-302 (protein) MSEDEEKVKLRRLEPAIQKFIKIVIPTDLERLRKHQINIEKYQRCRIWDKLHEEHINAGRTVQQLRSNIREIEKLCLKVRKDDLVLLKRMIDPVKEEASAATAEFLQLHLESVEELKKQFNDEETLLQPPLTRSMTVGGAFHTTEAEASSQSLTQIYALPEIPQDQNAAESWETLEADLIELSQLVTDFSLLVNSQQEKIDSIADHVNSAAVNVEEGTKNLGKAAKYKLAALPVAGALIGGMVGGPIGLLAGFKVAGIAAALGGGVLGFTGGKLIQRKKQKMMEKLTSSCPDLPSQTDKKCS | – | – | binds
